PubChem BioAssay AID504764, Drosophila RNAi Screening Center | 2011
The deposit covers about 22,000 reagents; shown is a random part of those that have a named target and a result. Of all reagents, 403 (1.9%) are marked active. 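Unnormalised raw counts per well; ratio z-scores behind the hit calls and whether each hit raises or lowers signal are not deposited.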 A plus sign joins genes that one reagent is predicted to hit. The record does not give: the amount of reagent.

Screen: 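Knock-downs that raise or lower a Notch target reporter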 (primary screen)
Cell system: Drosophila Kc167 cells
Reagent: long dsRNA against Drosophila genes
Timing: about 5 days (4 days dsRNA, then 24 h after transfection)
Treatment: transfection of constitutively active membrane-tethered Notch lacking the extracellular domain, read 24 h later
Read-out: 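Light from a Notch-responsive E(spl)m3 luciferase reporter under active Notch, with control-promoter and no-Notch reporter wells to normalise; raw counts from paired wells a and b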
Direction: induced reporter light, run 1, well a and induced reporter light, run 1, well b: higher = more light from the Notch target reporter with active Notch; control promoter light, run 1, well a and control promoter light, run 1, well b: higher = more light from the viral control promoter (cell number, transfection, viability); uninduced reporter light, run 1, well a: higher = more light from the Notch target reporter without active Notch
Call rule: 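Hit if the duplicate-averaged log2 ratio of induced to control-promoter light gives a plate-wise z beyond ±2, or induced to uninduced beyond ±1.8; weak-control or discordant-duplicate wells dropped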
Calls: active = modifier hit (raised or lowered Notch signal); inactive = not a hit

gene knocked down	DRSC id	induced reporter light, run 1, well a	induced reporter light, run 1, well b	control promoter light, run 1, well a	control promoter light, run 1, well b	uninduced reporter light, run 1, well a	outcome
tey (teyrha-meyrha)	DRSC11042	42415	38245	48790	46220	2095	inactive
CG13857	DRSC14707	1.67e5	1.51e5	1.69e5	1.68e5	12235	inactive
Kdm4B (Lysine demethylase 4B)	DRSC06862	1.86e5	1.82e5	1.92e5	2.19e5	14875	inactive
CG32087	DRSC10806	1.45e5	1.44e5	2.37e5	2.00e5	12765	inactive
TH1	DRSC20289	1.31e5	95760	1.84e5	2.20e5	10730	inactive
CG13837	DRSC14687	1.65e5	1.93e5	1.80e5	1.90e5	13405	inactive
CG13744	DRSC06415	1.95e5	1.49e5	1.78e5	1.76e5	15405	inactive
CG15767	DRSC18073	1.40e5	1.53e5	2.41e5	2.84e5	11080	inactive
CheB98a (Chemosensory protein A 98a)	DRSC14882	1.32e5	1.42e5	1.78e5	1.70e5	11195	inactive
CG32982	DRSC01059	63365	64125	38660	43965	5728	inactive
CG32982	DRSC02677	1.25e5	1.51e5	90650	1.44e5	21900	inactive
CG32982	DRSC03268	1.79e5	1.86e5	98085	1.14e5	21425	inactive
CG32982	DRSC03269	1.05e5	1.49e5	62050	1.06e5	15635	inactive
Ste:CG33238 + Ste:CG33241 + Ste:CG33236 + 11 more	DRSC19004	89305	79005	62815	85085	7595	inactive
Ste:CG33238 + Ste:CG33241 + Ste:CG33236 + 11 more	DRSC21260	1.13e5	96040	1.24e5	1.35e5	11110	inactive
Mob2	DRSC09117	71580	74835	51595	60795	7695	inactive
Mob2	DRSC09119	2.10e5	1.85e5	1.90e5	1.79e5	17305	inactive
Mob2	DRSC09856	62185	58165	32940	12920	8125	inactive
oc (ocelliless)	DRSC18808	1.17e5	1.34e5	2.18e5	2.13e5	11800	inactive
PIP5K59B (Phosphatidylinositol 4-phosphate 5-kinase 59B)	DRSC04290	2.14e5	1.98e5	1.85e5	2.01e5	15670	inactive
PIP5K59B (Phosphatidylinositol 4-phosphate 5-kinase 59B)	DRSC04403	2.08e5	1.66e5	1.60e5	1.55e5	14930	inactive
CG10514	DRSC14249	1.38e5	1.30e5	1.92e5	1.88e5	11830	inactive

Just “uninduced reporter light, run 1, well a”, for 4 of the entries above:
CG32982 [DRSC03269]	15635
Ste:CG33238 + Ste:CG33241 + Ste:CG33236 + 11 more [DRSC19004]	7595
Ste:CG33238 + Ste:CG33241 + Ste:CG33236 + 11 more [DRSC21260]	11110
Mob2 [DRSC09117]	7695

The listing continues.
gene knocked down	DRSC id	induced reporter light, run 1, well a	induced reporter light, run 1, well b	control promoter light, run 1, well a	control promoter light, run 1, well b	uninduced reporter light, run 1, well a	outcome
CG14034	DRSC02359	55890	39655	50075	42990	2840	inactive
RhoGDI	DRSC10919	1.16e5	1.07e5	78280	85190	9345	inactive
Zcchc7 (Zinc finger CCHC-type containing 7)	DRSC11099	96920	92300	65320	68880	8225	inactive
CG9300	DRSC11064	94155	1.14e5	63880	87825	8240	inactive
Scm (Sex comb on midleg)	DRSC16853	93305	97980	88410	56685	4480	inactive
Rb97D (Ribonuclear protein at 97D)	DRSC16815	2480	2270	5645	5138	370	inactive
CG11019 (retired record)	DRSC02117	35255	19435	16800	20665	2835	inactive
CG10338	DRSC02039	58685	48960	66400	84580	4075	inactive
Sec6 (Secretory 6)	DRSC06932	86205	80680	1.59e5	1.30e5	7695	inactive
CG7692	DRSC10902	1.35e5	1.63e5	2.34e5	1.84e5	7975	inactive
CG42808 + CG42807	DRSC06370	1.88e5	1.47e5	1.74e5	1.33e5	13290	inactive
CG42808 + CG42807	DRSC06966	1.34e5	92275	1.41e5	1.13e5	11025	inactive
